This passage reports Filling speed results from patent publication US20250073165A1, “OLANZAPINE, COMPOSITIONS THEREOF AND METHODS OF USE THEREOF” (Teva Pharmaceuticals International GmbH, priority 2022, published 2025).

Molecules are shown by their SMILES.

The data set can be described thus: Filling of API in vials by auger filling: filling performance. The note with it: % of the maximum capacity of the machine.
`Cc1cc2c(s1)Nc1ccccc1N=C2N1CCN(C)CC1` [Batch S3-221, 2-methyl-4-(4-methyl-1-piperazinyl)-10H-thieno[2,3-b][1,5]benzodiazepine] displayed a Filling speed of 18%.
Under `Cc1cc2c(s1)Nc1ccccc1N=C2N1CCN(C)CC1` [Batch S2-920, 2-methyl-4-(4-methyl-1-piperazinyl)-10H-thieno[2,3-b][1,5]benzodiazepine] stands 20%.
In the case of `Cc1cc2c(s1)Nc1ccccc1N=C2N1CCN(C)CC1` [Batch S3-020, 2-methyl-4-(4-methyl-1-piperazinyl)-10H-thieno[2,3-b][1,5]benzodiazepine] it was 12%.
Under `Cc1cc2c(s1)Nc1ccccc1N=C2N1CCN(C)CC1` [Batch M1-010, 2-methyl-4-(4-methyl-1-piperazinyl)-10H-thieno[2,3-b][1,5]benzodiazepine] stands 14%; under `Cc1cc2c(s1)Nc1ccccc1N=C2N1CCN(C)CC1` [Batch M6-020, 2-methyl-4-(4-methyl-1-piperazinyl)-10H-thieno[2,3-b][1,5]benzodiazepine], 16%; under `Cc1cc2c(s1)Nc1ccccc1N=C2N1CCN(C)CC1` [Batch S1-220, 2-methyl-4-(4-methyl-1-piperazinyl)-10H-thieno[2,3-b][1,5]benzodiazepine], 14%.
`Cc1cc2c(s1)Nc1ccccc1N=C2N1CCN(C)CC1` [Batch S1-920, 2-methyl-4-(4-methyl-1-piperazinyl)-10H-thieno[2,3-b][1,5]benzodiazepine] registered a Filling speed of 8%.
In the case of `Cc1cc2c(s1)Nc1ccccc1N=C2N1CCN(C)CC1` [Batch M2-121, 2-methyl-4-(4-methyl-1-piperazinyl)-10H-thieno[2,3-b][1,5]benzodiazepine] it was 14%.
`Cc1cc2c(s1)Nc1ccccc1N=C2N1CCN(C)CC1` [Batch M7-121, 2-methyl-4-(4-methyl-1-piperazinyl)-10H-thieno[2,3-b][1,5]benzodiazepine] displayed a Filling speed of 18%.
